Data from patent EP2697366B1, “B[…] THE PRESERVATION OF CELLULAR FUN[…] CLINICAL CELL THERAPY” (Johann Wolfgang Goethe-Universität, Frankfurt am Main, priority 2011, dated 2018).
At least one peptide structure holds a part that was inferred or is arguable (an end, a ring closure or a residue).

Legend:
Akt = Akt ELISA (phosphorylated/total Akt after SDF-1 stimulation); type: cell-based, human; conditions: Akt phosphorylation as downstream signal of CXCR-4 activation by SDF-1, Abb. 3; Bivalirudin 15 µg/ml overnight
humanen BMC = test: SDF-1 induced invasion assay (Matrigel Boyden chamber); type: cell-based, human; conditions: migration tests, Abb. 1; Bivalirudin 7,5-30 µg/ml, 30 min incubation
[1] = two large clinical studies; compared with standard therapy Heparin; cited from earlier work

Question: What does the source list for CC[C@H](C)[C@H](NC(=O)[C@H](CCC(=O)O)NC(=O)[C@H](CCC(=O)O)NC(=O)[C@H](Cc1ccccc1)NC(=O)[C@H](CC(=O)O)NC(=O)CNC(=O)[C@H](CC(N)=O)NC(=O)CNC(=O)CNC(=O)CNC(=O)CNC(=O)[C@@H]1CCCN1C(=O)[C@H](CCCNC(=N)N)NC(=O)[C@@H]1CCCN1C(=O)[C@H](N)Cc1ccccc1)C(=O)N1CCC[C@H]1C(=O)N[C@@H](CCC(=O)O)C(=O)N[C@@H](CCC(=O)O)C(=O)N[C@@H](Cc1ccc(O)cc1)C(=O)N[C@@H](CC(C)C)C(=O)O [Bivalirudin]?
Answer: SDF-1-vermittelte Interaktion mit dem CXCR-4-Receptor (Akt-Phosphorylierung) (Akt): nicht beeinträchtigt; SDF-1-vermittelte Interaktion mit dem CXCR-4-Receptor (Migrationstests) (humanen BMC): nicht beeinträchtigt; antithrombotische Aktivität im Hinblick auf typische Ischämieendpunkte [1]: der Standardtherapie mit Heparin vergleichbar
